# Experimental data as given in the supplement of paper PMC10849652.
# Protein sequences, listed by entry. Tags and fused reporters are not part of them. Lines headed by an entry give the natural chain unless they say otherwise; changes in a name come on top.
# UniProt Q9H0W9: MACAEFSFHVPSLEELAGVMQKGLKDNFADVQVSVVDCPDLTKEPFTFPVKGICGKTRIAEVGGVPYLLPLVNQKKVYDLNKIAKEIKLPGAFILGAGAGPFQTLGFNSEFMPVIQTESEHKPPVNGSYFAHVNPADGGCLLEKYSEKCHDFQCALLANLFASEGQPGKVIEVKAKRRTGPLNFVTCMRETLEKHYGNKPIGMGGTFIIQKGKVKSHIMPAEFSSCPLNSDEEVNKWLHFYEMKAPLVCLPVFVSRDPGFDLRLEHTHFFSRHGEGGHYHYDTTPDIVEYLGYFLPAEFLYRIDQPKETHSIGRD
# UniProt Q6P1X6: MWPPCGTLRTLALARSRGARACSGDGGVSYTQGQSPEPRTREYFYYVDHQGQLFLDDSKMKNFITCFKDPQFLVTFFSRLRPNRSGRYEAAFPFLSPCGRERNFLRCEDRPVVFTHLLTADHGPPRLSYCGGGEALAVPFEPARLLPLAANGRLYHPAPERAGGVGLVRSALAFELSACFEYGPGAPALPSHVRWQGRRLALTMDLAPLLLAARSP
# UniProt Q8NDD1: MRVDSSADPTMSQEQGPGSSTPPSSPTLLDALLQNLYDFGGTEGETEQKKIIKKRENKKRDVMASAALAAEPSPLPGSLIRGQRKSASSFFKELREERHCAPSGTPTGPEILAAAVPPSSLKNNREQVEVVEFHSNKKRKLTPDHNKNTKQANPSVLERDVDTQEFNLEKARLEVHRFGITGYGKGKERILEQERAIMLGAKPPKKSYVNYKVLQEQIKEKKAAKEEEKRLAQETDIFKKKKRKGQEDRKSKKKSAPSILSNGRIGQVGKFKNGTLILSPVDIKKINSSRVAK
# UniProt Q8IXQ3: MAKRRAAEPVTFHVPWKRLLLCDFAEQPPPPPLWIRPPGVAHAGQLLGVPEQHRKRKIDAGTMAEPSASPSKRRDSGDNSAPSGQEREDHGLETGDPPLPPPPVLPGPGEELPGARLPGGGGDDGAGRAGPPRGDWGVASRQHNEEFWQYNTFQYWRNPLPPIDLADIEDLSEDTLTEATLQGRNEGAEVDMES
# UniProt O43683: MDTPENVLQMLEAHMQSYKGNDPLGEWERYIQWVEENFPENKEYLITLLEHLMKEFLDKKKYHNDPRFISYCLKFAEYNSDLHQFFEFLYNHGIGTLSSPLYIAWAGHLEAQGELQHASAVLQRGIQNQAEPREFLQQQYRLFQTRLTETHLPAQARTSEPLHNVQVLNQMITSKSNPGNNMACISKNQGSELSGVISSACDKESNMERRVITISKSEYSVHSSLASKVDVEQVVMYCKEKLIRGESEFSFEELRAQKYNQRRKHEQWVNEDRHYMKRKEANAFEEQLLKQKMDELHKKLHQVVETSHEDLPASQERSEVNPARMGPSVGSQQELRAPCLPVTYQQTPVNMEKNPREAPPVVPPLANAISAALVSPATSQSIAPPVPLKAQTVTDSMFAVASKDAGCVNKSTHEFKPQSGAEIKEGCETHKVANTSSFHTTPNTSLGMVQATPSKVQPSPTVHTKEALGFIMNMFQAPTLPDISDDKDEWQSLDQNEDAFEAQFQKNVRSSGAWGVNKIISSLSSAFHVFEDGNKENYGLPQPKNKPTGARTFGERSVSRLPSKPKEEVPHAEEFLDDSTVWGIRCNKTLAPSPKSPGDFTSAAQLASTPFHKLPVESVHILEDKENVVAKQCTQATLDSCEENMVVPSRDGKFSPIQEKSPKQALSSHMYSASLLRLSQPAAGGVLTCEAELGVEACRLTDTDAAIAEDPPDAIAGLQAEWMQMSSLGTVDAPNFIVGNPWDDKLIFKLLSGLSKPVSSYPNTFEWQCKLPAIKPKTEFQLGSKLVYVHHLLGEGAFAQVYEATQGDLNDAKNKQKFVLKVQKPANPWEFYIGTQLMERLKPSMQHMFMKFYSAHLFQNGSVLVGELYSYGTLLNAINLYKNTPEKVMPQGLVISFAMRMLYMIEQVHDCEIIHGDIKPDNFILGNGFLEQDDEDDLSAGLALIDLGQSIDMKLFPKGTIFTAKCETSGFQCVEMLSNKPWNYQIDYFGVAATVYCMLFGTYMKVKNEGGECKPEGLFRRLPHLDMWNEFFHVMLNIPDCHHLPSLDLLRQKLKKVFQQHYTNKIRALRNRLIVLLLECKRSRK
# UniProt Q8N5I9: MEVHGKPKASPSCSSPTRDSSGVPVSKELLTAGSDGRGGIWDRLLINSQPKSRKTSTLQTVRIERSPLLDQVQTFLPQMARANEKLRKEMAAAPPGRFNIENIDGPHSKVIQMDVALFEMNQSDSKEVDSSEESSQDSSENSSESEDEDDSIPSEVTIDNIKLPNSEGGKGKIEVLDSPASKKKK
# UniProt P47756, whole entry, looked up: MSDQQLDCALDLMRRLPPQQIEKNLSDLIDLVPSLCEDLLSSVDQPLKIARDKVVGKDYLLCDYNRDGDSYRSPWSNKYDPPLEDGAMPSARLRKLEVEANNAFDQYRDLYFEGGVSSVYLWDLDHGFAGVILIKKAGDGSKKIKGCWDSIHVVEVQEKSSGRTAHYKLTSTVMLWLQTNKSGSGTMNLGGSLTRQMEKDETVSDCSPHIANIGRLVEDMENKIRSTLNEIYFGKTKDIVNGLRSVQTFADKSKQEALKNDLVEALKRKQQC
# UniProt Q9Y6W3: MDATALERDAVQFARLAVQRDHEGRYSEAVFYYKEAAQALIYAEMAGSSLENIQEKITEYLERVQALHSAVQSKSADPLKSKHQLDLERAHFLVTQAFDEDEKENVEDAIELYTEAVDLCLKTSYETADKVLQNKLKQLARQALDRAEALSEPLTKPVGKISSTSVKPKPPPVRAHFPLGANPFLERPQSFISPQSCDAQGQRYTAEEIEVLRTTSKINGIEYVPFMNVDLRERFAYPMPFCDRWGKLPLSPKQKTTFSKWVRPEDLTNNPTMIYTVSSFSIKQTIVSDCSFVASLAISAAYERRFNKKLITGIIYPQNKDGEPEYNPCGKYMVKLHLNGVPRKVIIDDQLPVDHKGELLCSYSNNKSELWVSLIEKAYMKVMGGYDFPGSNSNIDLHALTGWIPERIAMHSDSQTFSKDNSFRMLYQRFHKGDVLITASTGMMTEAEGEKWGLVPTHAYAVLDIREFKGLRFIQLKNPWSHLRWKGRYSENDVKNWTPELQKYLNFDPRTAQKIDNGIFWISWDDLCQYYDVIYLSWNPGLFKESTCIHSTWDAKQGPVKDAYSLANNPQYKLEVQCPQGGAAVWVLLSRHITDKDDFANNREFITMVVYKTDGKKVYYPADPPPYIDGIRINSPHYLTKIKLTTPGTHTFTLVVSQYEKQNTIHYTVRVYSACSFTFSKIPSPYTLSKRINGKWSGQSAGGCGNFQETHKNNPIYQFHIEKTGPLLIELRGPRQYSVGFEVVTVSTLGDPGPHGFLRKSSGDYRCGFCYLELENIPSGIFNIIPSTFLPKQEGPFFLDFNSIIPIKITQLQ
# UniProt Q8N1A6: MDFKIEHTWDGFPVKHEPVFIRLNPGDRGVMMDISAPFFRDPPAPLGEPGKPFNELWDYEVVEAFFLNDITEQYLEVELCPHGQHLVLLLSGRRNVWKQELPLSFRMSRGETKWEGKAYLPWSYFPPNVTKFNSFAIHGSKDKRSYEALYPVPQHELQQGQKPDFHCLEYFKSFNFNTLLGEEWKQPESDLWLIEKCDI
# UniProt Q9Y2V2: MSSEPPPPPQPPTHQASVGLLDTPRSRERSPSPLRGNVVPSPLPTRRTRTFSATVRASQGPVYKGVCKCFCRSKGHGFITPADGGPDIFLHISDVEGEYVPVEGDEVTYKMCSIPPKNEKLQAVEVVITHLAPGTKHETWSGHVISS
# UniProt Q96MD7: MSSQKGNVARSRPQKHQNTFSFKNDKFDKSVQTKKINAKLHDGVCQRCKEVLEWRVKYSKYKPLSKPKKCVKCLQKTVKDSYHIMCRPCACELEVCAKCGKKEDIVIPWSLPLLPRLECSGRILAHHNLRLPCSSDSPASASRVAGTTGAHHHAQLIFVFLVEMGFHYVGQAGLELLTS
# UniProt Q9HB71, whole entry, looked up: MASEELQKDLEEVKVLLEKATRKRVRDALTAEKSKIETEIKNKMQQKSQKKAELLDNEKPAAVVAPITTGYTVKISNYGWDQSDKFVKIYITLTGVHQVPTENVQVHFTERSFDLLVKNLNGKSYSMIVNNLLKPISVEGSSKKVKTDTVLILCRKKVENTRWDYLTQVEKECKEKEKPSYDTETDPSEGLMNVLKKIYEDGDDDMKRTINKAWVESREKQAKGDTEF
# UniProt Q8WUQ7: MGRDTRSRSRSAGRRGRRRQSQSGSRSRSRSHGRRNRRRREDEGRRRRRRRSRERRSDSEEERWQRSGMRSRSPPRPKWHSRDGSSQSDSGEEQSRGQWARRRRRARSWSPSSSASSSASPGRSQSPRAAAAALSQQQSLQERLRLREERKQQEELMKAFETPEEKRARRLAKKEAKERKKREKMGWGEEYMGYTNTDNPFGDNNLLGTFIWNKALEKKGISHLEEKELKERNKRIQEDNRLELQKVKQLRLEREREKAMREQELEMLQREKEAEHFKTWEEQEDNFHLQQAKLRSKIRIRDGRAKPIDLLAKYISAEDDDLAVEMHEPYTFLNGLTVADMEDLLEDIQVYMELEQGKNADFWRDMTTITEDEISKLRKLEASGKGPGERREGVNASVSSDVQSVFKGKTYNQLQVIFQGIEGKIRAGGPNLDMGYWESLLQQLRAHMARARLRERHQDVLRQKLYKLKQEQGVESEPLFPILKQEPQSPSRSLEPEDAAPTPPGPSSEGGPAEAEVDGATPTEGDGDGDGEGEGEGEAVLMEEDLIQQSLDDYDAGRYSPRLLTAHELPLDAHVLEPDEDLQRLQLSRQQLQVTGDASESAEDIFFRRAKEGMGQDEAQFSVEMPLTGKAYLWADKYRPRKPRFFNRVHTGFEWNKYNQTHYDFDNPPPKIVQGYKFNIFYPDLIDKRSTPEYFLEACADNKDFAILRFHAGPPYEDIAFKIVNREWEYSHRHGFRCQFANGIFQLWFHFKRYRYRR
# UniProt Q86VP6: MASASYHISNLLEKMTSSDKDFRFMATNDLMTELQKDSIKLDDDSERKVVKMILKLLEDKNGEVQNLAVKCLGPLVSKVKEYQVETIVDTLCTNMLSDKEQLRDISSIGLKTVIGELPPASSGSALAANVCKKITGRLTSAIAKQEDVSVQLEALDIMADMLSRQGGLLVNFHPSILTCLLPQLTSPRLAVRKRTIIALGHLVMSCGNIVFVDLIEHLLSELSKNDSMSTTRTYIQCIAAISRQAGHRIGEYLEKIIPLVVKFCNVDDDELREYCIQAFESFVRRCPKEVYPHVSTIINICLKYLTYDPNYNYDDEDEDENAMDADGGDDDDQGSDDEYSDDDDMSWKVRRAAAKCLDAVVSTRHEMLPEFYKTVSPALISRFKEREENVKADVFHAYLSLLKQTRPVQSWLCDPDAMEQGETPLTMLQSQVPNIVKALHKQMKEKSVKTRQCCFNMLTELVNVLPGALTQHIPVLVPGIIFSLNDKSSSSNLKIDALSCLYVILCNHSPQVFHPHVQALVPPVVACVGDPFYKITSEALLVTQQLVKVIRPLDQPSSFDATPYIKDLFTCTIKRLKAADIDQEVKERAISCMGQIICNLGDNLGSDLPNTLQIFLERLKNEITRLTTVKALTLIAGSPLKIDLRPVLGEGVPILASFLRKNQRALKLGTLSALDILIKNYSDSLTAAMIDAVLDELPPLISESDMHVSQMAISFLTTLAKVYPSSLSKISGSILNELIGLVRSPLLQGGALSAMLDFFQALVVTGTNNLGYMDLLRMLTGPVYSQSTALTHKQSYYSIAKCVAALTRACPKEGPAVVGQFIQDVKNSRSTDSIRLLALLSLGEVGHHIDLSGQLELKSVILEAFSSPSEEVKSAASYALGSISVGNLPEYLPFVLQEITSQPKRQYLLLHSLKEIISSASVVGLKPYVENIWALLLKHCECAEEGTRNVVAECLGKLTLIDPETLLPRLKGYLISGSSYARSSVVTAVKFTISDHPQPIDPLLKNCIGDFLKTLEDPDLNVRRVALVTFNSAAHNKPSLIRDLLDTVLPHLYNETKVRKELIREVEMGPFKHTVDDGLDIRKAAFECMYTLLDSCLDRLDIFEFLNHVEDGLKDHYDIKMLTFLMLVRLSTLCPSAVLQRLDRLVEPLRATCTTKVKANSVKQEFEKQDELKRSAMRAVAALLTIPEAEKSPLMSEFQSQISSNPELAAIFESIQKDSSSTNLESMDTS
# UniProt Q96B23: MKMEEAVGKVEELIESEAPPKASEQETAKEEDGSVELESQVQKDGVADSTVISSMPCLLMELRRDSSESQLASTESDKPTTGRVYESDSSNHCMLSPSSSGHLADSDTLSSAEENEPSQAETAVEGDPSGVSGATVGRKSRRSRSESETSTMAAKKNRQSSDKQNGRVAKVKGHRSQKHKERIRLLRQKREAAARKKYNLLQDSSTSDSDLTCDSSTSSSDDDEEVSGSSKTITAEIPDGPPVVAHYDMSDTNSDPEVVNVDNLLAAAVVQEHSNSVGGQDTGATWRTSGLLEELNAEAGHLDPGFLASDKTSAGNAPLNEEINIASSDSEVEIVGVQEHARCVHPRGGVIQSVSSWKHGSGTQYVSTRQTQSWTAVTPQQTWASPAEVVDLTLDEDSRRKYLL
# The list shows a part of the results.
# Experiments:
# Experiment in all cases: log2 fold change, soluble protein after heating vs DMSO (PISA); higher = thermal stabilisation; K562 cells, 10 uM, 30 min; active = over 0.2 and 3.5 SD of the protein, either way, in both replicates (recomputed)
# erlotinib = compound: C#Cc1cccc(Nc2ncnc3cc(OCCOC)c(OCCOC)cc23)c1 [erlotinib]
# Summary of the method: (§1)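 Aliquots of K562 cells (2×10^6 cells/mL) treated with 10 μM compound for 30 min were heated for 3 min over 48°C-58°C. After pooling and extraction in PBS with 0.5% NP-40 at 4°C, soluble protein from a 21,000xg, 90 min spin was quantified by TMTpro 16plex LC-MS/MS with channel sums equalised. Thermal stability is expressed against control samples, from duplicates, as a log2 fold change.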
# [1] = compound: C/C(=N\NC(=O)C1=CC(=CC=C1)S(=O)(=O)N2CCOCC2)/C3=C(C=CC(=C3)Cl)O
# Summary of the method: as §1
# [2] = compound: C1=CC(=C(C=C1Cl)C2=NC3=NC=CN=C3C(=N2)NC4=CC=NC=C4)F
# Summary of the method: as §1
# [3] = compound: C1=CC(=CC=C1C2=NC3=C(N2)C=C(C=C3)C(=O)N)OC4=CC=C(C=C4)Cl
# Summary of the method: as §1
# [4] = compound: C1=CC2=C(C=CC(=C2)/C=C\3/C(=O)NC(=NCC4=CC=CS4)S3)N=C1
# Summary of the method: as §1
# [5] = compound: C1=CC2=NC=CN=C2C=C1/C=C/3\C(=O)NC(=O)S3
# Summary of the method: as §1
# [6] = compound: C1=CC=C(C=C1)C2=NC(=C(N2)C3=CC=NC=C3)C4=CC(=C(C=C4)Cl)O
# Summary of the method: as §1
# [7] = compound: C1=CC=C2C(=C1)C3=NNC4=CC=CC(=C43)C2=O
# Summary of the method: as §1
# [8] = compound: C1CCN(C1)C(=O)NC2=CC=CC(=C2)NC3=NC=C(C(=N3)NCCC4=CN=CN4)Br
# Summary of the method: as §1
# [9] = compound: C1CN(CCC1(CC2=CC=C(C=C2)Cl)N)C3=NC=NC4=C3C=CN4
# Summary of the method: as §1
Target,log2 fold change (erlotinib),log2 fold change [1],log2 fold change [2],log2 fold change [3],log2 fold change [4],log2 fold change [5],log2 fold change [6],log2 fold change [7],log2 fold change [8],log2 fold change [9]
C11orf54 (UniProt Q9H0W9),inactive: -0.045,inactive: -0.019,inactive: 0.062,inactive: 0.008,inactive: -0.057,inactive: 0.005,inactive: 0.039,inactive: -0.009,inactive: -0.043,inactive: 0.003
CAMSAP1 isoform 3 (UniProt Q5T5Y3),inactive: -0.084,inactive: 0.023,inactive: -0.014,inactive: -0.013,inactive: 0.058,inactive: 0.007,inactive: 0.035,inactive: -0.078,inactive: -0.016,inactive: 0.006
C8orf82 (UniProt Q6P1X6),inactive: 0.015,inactive: -0.011,inactive: 0.041,inactive: -0.039,inactive: -0.031,inactive: -0.025,inactive: 0.006,inactive: -0.04,inactive: 0.017,inactive: 0.05
C1GALT1C1 (UniProt Q96EU7),inactive: 0.014,inactive: 0.027,inactive: -0.048,inactive: 0.01,inactive: 0.022,inactive: 0.053,inactive: 0.004,inactive: -0.004,inactive: -0.014,inactive: 0.066
C1orf131 isoform 5 (UniProt Q8NDD1),inactive: -0.051,inactive: -0.169,inactive: -0.303,inactive: -0.001,inactive: -0.053,inactive: 0,inactive: -0.092,inactive: -0.025,inactive: 0.139,inactive: -0.096
CAPN1 (UniProt P07384),inactive: 0.02,inactive: 0.033,inactive: 0.071,inactive: 0.019,inactive: -0.008,inactive: 0.012,inactive: -0.009,inactive: -0.025,inactive: -0.033,inactive: 0.056
C9orf40 (UniProt Q8IXQ3),inactive: 0.033,inactive: -0.03,inactive: -0.078,inactive: 0.032,inactive: -0.189,inactive: -0.015,inactive: -0.041,inactive: -0.014,inactive: 0.013,inactive: -0.022
BUB1 (UniProt O43683),inactive: 0.311,inactive: -0.082,inactive: 0.096,inactive: -0.05,inactive: 0.207,inactive: 0.117,inactive: -0.199,inactive: 0.021,inactive: 0.142,inactive: 0.083
C12orf45 (UniProt Q8N5I9),inactive: 0.014,inactive: -0.017,inactive: 0.045,inactive: -0.009,inactive: -0.056,inactive: 0.093,inactive: -0.087,inactive: -0.011,inactive: 0.001,inactive: -0.014
CAPZB isoform 2 (UniProt P47756),inactive: -0.007,inactive: -0.024,inactive: 0.075,inactive: -0.074,inactive: -0.033,inactive: 0.055,inactive: 0.024,inactive: -0.013,inactive: 0.067,inactive: 0.02
CAPZA1 (UniProt P52907),inactive: -0.001,inactive: 0.018,inactive: 0.028,inactive: 0.015,inactive: 0.048,inactive: 0.011,inactive: 0.006,inactive: 0,inactive: -0.051,inactive: 0.01
CAPG (UniProt P40121),inactive: 0.001,inactive: 0.055,inactive: 0.071,inactive: -0.035,inactive: -0.017,inactive: 0.063,inactive: 0.038,inactive: 0.029,inactive: -0.047,inactive: -0.015
CAB39 (UniProt Q9Y376),inactive: -0.004,inactive: -0.025,inactive: 0.022,inactive: -0.018,inactive: 0.034,inactive: -0.009,inactive: 0.016,inactive: 0.012,inactive: -0.004,inactive: 0.029
CAPN7 (UniProt Q9Y6W3),inactive: 0.003,inactive: 0.083,inactive: 0.005,inactive: -0.023,inactive: 0.016,inactive: 0.043,inactive: -0.088,inactive: 0.019,inactive: -0.039,inactive: -0.026
C4orf33 (UniProt Q8N1A6),inactive: -0.026,inactive: 0.023,inactive: 0.052,inactive: 0.138,inactive: 0.072,active: -0.287,inactive: -0.092,inactive: 0.016,inactive: 0.017,inactive: 0.06
C15orf40 (UniProt Q8WUR7),inactive: 0.036,inactive: -0.125,inactive: -0.088,inactive: -0.019,inactive: 0.053,inactive: 0.07,inactive: -0.107,inactive: -0.08,inactive: 0.052,inactive: 0.044
C1orf122 (UniProt Q6ZSJ8),inactive: 0.181,inactive: 0.145,inactive: 0.079,inactive: -0.042,inactive: -0.17,inactive: -0.002,inactive: 0.125,inactive: 0.05,inactive: -0.056,inactive: 0.03
CARHSP1 (UniProt Q9Y2V2),inactive: 0.002,inactive: 0.003,inactive: 0.037,inactive: 0.014,inactive: 0.033,inactive: -0.06,inactive: -0.02,inactive: -0.055,inactive: -0.05,inactive: -0.107
C9orf85 isoform 1 (UniProt Q96MD7),inactive: 0.006,inactive: -0.062,inactive: 0.081,inactive: 0.01,inactive: 0.362,–,–,inactive: -0.141,inactive: -0.035,inactive: 0.014
CACYBP (UniProt Q9HB71),inactive: 0.021,inactive: 0.032,inactive: 0.011,inactive: -0.031,inactive: -0.019,inactive: 0.018,inactive: 0.023,inactive: 0.034,inactive: 0.027,inactive: 0.01
CACTIN isoform 2 (UniProt Q8WUQ7),inactive: 0.054,inactive: -0.094,inactive: -0.054,inactive: 0.072,inactive: 0.009,inactive: -0.196,–,inactive: 0.034,inactive: -0.056,inactive: -0.1
CAPNS1 (UniProt U3KPR7),inactive: -0.092,inactive: 0.084,–,inactive: -0.136,inactive: -0.138,–,–,inactive: 0.373,–,–
C9orf78 (UniProt Q9NZ63),inactive: 0.036,inactive: -0.022,inactive: 0.046,inactive: -0.001,inactive: -0.04,inactive: 0.034,inactive: 0.013,inactive: -0.031,inactive: 0.025,inactive: 0.032
CAND1 (UniProt Q86VP6),inactive: 0.011,inactive: 0.009,inactive: 0.067,inactive: -0.006,inactive: -0.001,inactive: 0.002,inactive: 0.026,inactive: 0.003,inactive: 0,inactive: 0.05
C11orf68 (UniProt Q9H3H3),inactive: -0.017,inactive: 0.061,inactive: 0.063,inactive: 0.03,inactive: 0.028,inactive: 0.022,inactive: 0.031,inactive: 0.017,inactive: -0.025,inactive: 0.027
CA2 (UniProt P00918),inactive: 0.058,inactive: 0.112,–,inactive: 0.025,inactive: 0.055,inactive: -0.025,–,inactive: -0.131,inactive: -0.024,inactive: 0.021
C1orf167 isoform 2 (UniProt Q5SNV9),inactive: 0.089,–,inactive: -0.088,inactive: 0.037,–,inactive: 0.158,–,–,–,–
C18orf25 isoform 2 (UniProt Q96B23),inactive: 0.009,inactive: -0.081,inactive: 0.018,inactive: -0.154,inactive: 0.021,inactive: -0.008,–,inactive: 0.012,inactive: 0.097,inactive: 0.115

# Part of the list above, with tabs:
Target	log2 fold change (erlotinib)	log2 fold change [1]	log2 fold change [2]	log2 fold change [3]	log2 fold change [4]	log2 fold change [5]	log2 fold change [6]	log2 fold change [7]	log2 fold change [8]	log2 fold change [9]
C12orf45 (UniProt Q8N5I9)	inactive: 0.014	inactive: -0.017	inactive: 0.045	inactive: -0.009	inactive: -0.056	inactive: 0.093	inactive: -0.087	inactive: -0.011	inactive: 0.001	inactive: -0.014
CAPZB isoform 2 (UniProt P47756)	inactive: -0.007	inactive: -0.024	inactive: 0.075	inactive: -0.074	inactive: -0.033	inactive: 0.055	inactive: 0.024	inactive: -0.013	inactive: 0.067	inactive: 0.02
